# In the supplement of paper PMC12067093, “Discovery and optimisation of a covalent ligand for TRIM25 and its application to targeted protein ubiquitination” (Chemical Science, 2025):
# By UniProt entry, the sequences of proteins in these tests, tags left out. Where a name states a change or a piece, a line headed by the entry shows the natural chain unless it says otherwise.
# UniProt Q8TD19: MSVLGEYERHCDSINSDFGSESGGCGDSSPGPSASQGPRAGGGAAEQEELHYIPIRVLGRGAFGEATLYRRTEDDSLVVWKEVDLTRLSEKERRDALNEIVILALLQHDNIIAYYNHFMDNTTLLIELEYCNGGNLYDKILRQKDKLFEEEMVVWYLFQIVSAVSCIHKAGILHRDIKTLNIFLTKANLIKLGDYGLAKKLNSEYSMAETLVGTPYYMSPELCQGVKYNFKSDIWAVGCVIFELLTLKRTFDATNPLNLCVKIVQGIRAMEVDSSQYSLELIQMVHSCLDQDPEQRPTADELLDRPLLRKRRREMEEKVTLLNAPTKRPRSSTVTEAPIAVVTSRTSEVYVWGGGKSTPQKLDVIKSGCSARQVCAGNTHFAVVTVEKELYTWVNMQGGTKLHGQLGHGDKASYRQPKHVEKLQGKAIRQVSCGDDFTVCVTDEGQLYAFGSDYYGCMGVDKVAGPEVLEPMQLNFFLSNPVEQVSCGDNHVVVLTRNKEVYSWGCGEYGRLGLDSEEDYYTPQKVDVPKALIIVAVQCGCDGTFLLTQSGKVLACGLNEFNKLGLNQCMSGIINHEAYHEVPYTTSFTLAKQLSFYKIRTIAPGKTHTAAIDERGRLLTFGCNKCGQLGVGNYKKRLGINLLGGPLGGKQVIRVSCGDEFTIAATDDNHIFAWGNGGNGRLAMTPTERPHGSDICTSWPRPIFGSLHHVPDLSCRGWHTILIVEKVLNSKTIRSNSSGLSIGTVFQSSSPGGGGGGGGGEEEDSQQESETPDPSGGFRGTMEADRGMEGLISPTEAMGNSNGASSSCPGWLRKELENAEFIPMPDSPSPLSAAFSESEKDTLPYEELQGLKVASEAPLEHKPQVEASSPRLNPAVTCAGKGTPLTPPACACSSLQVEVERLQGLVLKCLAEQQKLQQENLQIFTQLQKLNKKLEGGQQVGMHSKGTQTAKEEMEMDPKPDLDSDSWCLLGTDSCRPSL
# UniProt P35240: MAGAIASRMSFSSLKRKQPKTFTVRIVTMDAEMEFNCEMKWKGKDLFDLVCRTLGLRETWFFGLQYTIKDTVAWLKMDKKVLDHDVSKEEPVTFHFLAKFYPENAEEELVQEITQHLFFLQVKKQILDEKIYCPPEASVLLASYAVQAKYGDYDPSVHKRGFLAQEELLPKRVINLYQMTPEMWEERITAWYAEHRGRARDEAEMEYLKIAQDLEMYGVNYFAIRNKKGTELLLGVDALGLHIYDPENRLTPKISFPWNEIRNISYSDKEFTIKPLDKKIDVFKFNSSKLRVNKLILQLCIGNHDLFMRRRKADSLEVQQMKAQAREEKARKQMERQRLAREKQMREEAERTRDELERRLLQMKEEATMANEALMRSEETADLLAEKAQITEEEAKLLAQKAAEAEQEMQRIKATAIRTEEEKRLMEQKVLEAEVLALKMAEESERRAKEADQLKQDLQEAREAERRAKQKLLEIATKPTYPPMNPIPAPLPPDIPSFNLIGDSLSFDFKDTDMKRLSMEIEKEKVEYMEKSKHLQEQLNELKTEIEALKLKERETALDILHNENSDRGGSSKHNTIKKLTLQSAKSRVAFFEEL
# UniProt P51970, whole entry, looked up: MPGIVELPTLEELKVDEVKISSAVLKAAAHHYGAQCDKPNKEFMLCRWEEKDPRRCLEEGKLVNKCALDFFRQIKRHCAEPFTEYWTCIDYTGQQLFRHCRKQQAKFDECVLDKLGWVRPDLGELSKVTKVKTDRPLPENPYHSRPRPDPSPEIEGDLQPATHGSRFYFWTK
# UniProt O60524: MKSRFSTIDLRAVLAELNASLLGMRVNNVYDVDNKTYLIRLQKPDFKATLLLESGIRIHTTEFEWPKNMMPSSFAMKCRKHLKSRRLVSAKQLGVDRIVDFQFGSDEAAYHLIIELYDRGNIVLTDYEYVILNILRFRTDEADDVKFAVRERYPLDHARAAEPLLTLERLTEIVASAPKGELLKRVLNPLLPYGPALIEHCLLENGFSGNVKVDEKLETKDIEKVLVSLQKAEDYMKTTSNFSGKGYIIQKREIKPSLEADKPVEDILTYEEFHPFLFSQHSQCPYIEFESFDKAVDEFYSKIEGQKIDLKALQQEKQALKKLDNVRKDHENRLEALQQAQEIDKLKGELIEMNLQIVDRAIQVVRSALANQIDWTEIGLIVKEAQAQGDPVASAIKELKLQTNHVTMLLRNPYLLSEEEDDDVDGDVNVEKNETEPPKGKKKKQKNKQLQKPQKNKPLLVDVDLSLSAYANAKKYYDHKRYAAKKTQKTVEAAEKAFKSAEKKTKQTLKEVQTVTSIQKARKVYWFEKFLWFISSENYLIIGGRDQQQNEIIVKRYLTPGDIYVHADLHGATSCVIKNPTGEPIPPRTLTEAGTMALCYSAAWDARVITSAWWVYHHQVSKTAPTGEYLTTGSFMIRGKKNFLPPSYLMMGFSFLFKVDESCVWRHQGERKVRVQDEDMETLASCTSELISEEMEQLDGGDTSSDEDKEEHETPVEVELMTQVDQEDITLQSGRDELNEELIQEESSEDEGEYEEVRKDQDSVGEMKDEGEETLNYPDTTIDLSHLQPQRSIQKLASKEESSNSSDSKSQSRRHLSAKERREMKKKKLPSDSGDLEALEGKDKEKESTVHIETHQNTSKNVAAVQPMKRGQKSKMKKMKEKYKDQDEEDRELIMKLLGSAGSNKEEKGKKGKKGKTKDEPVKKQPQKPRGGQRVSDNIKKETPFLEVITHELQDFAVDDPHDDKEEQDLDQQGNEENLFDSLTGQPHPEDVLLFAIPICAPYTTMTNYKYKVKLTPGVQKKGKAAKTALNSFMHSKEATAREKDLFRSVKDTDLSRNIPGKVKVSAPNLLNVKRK
# UniProt O95299, whole entry, looked up: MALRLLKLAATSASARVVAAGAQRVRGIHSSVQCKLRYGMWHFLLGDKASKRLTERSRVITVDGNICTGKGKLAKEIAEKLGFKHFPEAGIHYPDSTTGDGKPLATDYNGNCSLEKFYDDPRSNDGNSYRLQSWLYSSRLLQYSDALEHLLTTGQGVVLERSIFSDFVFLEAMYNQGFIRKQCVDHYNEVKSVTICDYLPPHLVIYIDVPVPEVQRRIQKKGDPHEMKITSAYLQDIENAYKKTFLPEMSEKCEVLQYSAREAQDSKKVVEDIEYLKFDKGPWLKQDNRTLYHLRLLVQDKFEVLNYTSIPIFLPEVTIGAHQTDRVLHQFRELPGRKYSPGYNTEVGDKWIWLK
# UniProt Q8N4C6: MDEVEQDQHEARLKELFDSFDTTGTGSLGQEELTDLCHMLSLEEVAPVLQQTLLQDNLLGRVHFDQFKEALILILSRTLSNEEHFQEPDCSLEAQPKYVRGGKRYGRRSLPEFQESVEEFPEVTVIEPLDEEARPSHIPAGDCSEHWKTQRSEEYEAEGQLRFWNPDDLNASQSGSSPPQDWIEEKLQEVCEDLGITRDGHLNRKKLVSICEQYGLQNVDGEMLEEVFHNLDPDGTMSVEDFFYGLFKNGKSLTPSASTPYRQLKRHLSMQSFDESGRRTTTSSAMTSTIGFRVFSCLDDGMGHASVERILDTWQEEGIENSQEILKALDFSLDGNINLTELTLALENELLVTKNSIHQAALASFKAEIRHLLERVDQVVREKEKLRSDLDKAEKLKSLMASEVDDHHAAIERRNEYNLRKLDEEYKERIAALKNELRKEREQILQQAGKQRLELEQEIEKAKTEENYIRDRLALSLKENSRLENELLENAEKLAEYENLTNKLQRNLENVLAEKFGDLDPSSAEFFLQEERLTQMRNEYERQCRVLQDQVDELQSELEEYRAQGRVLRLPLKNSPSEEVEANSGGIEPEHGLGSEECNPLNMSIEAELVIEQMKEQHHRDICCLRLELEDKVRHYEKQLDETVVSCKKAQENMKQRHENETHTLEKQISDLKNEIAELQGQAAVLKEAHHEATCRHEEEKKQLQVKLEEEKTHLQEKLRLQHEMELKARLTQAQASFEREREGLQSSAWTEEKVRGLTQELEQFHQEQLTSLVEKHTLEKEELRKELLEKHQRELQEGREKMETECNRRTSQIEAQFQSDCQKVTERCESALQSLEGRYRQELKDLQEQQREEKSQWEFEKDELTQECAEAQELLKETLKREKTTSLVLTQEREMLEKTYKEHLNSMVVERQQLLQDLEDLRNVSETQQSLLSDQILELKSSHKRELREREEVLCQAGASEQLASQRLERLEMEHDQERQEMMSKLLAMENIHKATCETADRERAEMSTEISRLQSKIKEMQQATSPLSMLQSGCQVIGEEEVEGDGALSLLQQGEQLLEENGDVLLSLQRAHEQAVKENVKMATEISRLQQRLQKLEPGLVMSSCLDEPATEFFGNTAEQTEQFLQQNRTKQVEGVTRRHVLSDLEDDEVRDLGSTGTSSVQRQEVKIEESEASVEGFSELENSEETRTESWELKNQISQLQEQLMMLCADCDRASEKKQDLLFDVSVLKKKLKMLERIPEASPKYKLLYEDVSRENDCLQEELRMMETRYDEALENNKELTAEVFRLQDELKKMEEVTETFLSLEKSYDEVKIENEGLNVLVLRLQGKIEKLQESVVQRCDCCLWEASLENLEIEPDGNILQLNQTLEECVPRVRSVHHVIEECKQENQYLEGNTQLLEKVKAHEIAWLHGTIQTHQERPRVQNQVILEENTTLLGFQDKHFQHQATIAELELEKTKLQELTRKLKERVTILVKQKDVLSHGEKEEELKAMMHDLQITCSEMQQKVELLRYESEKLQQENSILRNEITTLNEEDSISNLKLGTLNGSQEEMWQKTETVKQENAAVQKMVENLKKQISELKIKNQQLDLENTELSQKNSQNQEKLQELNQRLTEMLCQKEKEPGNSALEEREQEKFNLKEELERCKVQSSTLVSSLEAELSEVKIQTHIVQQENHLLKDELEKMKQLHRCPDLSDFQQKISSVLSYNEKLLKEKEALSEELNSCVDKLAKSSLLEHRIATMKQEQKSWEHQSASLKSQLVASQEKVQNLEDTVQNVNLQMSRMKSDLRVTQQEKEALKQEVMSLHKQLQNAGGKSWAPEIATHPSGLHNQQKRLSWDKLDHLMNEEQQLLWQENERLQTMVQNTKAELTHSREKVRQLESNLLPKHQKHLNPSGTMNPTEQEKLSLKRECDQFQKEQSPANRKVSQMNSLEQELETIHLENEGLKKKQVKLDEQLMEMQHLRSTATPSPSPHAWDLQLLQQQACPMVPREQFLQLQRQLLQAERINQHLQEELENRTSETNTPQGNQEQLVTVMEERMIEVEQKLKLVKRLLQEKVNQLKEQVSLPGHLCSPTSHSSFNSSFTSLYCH
# UniProt O75380, whole entry, looked up: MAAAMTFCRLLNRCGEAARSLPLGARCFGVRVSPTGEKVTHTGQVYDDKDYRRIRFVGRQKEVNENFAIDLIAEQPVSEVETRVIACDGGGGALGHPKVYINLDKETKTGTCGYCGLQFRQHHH
# UniProt Q12968: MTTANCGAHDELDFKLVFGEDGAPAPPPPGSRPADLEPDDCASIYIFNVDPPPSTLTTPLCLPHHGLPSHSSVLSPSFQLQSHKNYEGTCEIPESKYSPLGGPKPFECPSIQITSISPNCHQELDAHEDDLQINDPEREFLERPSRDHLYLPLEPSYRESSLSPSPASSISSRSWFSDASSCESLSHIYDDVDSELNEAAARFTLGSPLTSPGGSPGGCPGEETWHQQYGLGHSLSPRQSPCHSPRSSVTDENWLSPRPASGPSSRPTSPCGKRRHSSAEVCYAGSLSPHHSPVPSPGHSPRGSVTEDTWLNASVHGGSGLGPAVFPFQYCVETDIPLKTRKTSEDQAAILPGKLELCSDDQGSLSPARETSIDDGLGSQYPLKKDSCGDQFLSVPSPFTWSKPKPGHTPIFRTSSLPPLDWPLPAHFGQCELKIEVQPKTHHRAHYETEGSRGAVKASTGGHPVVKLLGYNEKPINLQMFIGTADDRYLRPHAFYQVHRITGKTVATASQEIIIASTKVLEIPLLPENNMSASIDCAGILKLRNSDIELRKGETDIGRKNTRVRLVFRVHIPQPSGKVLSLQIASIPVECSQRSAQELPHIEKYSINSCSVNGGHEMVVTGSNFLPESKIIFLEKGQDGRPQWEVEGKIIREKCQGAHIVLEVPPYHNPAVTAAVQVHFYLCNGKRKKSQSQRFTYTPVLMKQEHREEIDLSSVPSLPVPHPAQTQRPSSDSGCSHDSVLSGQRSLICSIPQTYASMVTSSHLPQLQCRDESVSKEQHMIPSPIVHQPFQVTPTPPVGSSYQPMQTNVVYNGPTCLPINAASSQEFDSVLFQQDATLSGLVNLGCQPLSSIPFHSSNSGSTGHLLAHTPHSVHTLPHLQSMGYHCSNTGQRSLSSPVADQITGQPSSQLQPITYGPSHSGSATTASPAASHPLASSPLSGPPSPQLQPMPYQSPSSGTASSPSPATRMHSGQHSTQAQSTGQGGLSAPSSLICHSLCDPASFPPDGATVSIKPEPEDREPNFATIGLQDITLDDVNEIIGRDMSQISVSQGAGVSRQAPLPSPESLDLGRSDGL
# This is one part of the list.
# Compound: Cc1cc(ccc1-c1ccccc1)C(=O)N1CCCN(CC1)C(=O)CCl [compound 10]
# Experiment: probe-labelled cysteine peptide fold change vs DMSO (competition) (log2 fold change); higher = less target engagement (more negative = stronger competition)
# Conditions: 50 µM; THP-1; incubation time: 4 h
# 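Note: competitive profiling in live THP-1 cells: cysteine peptides tagged with an iodoacetamide desthiobiotin (IA-DTB) probe, intensity after compound treatment relative to DMSO-treated cells.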
row,Target,probe-labelled cysteine peptide fold change
1,NCOR2_Q9Y618_1289_GHVLSYEGGMSVTQCSK (UniProt Q9Y618),-0.339
2,NEK9_Q8TD19_715_PIFGSLHHVPDLSCR (UniProt Q8TD19),0.133
3,NDRG1_Q92597_49_GETITGLLQEFDVQEQDIETLHGSVHVTLCGTPK (UniProt Q92597),0.0766
4,NDRG2_Q9UN36_274_CPVMLVVGDQAPHEDAVVECNSK (UniProt Q9UN36),-0.0152
5,NCKAP1L_P55160_942_EVFSSHCPFLMGPIECLK (UniProt P55160),0.0947
6,NF2_P35240_133_IYCPPEASVLLASYAVQAK (UniProt P35240),0.232
7,NEK9_Q8TD19_696_LAMTPTERPHGSDICTSWPR (UniProt Q8TD19),0.111
8,NDUFA8_P51970_110_FDECVLDK (UniProt P51970),0.173
9,NEMF_O60524_201_RVLNPLLPYGPALIEHCLLENGFSGNVK (UniProt O60524),0.103
10,NDUFA10_O95299_253_CEVLQYSAR (UniProt O95299),-0.0217
11,NIN_Q8N4C6_695_EAHHEATCR (UniProt Q8N4C6),0.089
12,NDUFV1_P49821_286_LFNISGHVNHPCTVEEEMSVPLK (UniProt P49821),-0.174
13,NCKIPSD_Q9NZQ3_138_QPNGVCR (UniProt Q9NZQ3),-0.733
14,NFKBIA_P25963_167_GNTPLHLACEQGCLASVGVLTQSCTTPHLHSILK (UniProt P25963),-0.481
15,NDUFAF7_Q7L592_275_DHVEVCPDAGVIIEELSQR (UniProt Q7L592),0.0232
16,NDUFA10_O95299_67_VITVDGNICTGK (UniProt O95299),0.0884
17,NCOA7_Q8NI08_55_CNIAVEEEYMTDEK (UniProt Q8NI08),-0.387
18,NFIX_Q14938_6_MYSPYCLTQDEFHPFIEALLPHVR (UniProt Q14938),0.0462
19,NDUFS6_O75380_87_VIACDGGGGALGHPK (UniProt O75380),-0.117
20,NECAP1_Q8NC96_12_ATELEYESVLCVKPDVSVYR (UniProt Q8NC96),0.346
21,NELFA_Q9H3P2_471_ENPCQEQGDVIQIK (UniProt Q9H3P2),-0.242
22,NFIB_O00712_120_RIDCLR (UniProt O00712),-0.0338
23,NFATC3_Q12968_90_NYEGTCEIPESK (UniProt Q12968),-0.319

# Random excerpt: 2 records from the list
row,Target,probe-labelled cysteine peptide fold change
11,NIN_Q8N4C6_695_EAHHEATCR (UniProt Q8N4C6),0.089
19,NDUFS6_O75380_87_VIACDGGGGALGHPK (UniProt O75380),-0.117
